PMC2666748
Results are given in words; binding and its absence hold for the method and conditions named. In cells and extracts the contact can be indirect. Here binding means that the protein was enriched with, or labelled near, the bait; the list need not be complete.

T1: OE2401F (bait) (H. salinarum) (UniProt B0R4J2)
T1 sequence: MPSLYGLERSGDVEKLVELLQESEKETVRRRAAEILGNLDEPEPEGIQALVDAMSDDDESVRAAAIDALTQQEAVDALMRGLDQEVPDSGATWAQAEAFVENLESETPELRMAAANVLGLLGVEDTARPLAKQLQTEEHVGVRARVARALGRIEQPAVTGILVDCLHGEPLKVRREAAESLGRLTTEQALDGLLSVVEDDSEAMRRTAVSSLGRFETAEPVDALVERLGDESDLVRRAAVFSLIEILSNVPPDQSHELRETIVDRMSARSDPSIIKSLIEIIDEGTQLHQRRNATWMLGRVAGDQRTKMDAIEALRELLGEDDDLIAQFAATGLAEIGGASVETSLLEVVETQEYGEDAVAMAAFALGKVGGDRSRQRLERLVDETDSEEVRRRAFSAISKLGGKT

T2: OE2402F (bait) (H. salinarum) (UniProt B0R4J3)
T2 sequence: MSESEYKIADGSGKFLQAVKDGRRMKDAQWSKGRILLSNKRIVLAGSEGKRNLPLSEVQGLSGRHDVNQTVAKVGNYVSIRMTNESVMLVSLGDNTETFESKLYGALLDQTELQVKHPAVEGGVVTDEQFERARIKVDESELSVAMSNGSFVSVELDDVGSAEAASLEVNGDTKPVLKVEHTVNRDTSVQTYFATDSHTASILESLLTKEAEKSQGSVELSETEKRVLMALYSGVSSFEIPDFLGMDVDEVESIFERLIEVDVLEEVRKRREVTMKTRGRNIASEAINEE

T3: OE2404R (bait) (H. salinarum) (UniProt B0R4J4)
T3 sequence: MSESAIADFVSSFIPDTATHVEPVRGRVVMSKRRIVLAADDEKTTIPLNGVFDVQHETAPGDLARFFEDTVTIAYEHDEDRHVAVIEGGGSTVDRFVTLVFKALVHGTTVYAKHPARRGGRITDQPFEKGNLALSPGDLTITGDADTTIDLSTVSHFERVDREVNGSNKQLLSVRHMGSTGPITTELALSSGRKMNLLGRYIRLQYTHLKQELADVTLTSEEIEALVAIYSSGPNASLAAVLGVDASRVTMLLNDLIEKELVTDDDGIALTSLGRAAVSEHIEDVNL

B1: OE2402F (protein, UniProt B0R4J3 1-290)
chain: T2 sequence

Columns and labels:
Assay in all cases: affinity purification with mass spectrometry; additional bait fishing experiments with OE2402F, OE2404R and OE2401F as baits fused to a cellulose-binding domain; halobacterial protein complexes, components identified by mass spectrometry; details in Additional file 1
[1] = biological target: T1, OE2401F (bait) (H. salinarum)
[2] = biological target: T2, OE2402F (bait) (H. salinarum)
[3] = biological target: T3, OE2404R (bait) (H. salinarum)

Molecule	binding [1]	binding [2]	binding [3]
CheD (prey)	binds		
FlaCE		binds	binds
FlaD			binds
B1	binds		
